Reference: doi:10.1101/2024.11.04.621718
No constants are given. Whether binding was seen depends on the method and setting. Binding seen in cells or lysates may run through a third protein. Some results given as binding are weak or reduced against the parent protein; the word gives no strength.

By UniProt entry, the sequences of proteins in these tests, tags left out. Where a name states a change or a piece, a line headed by the entry shows the natural chain unless it says otherwise. Chains listed by the source or under a name are the forms on record and can include a tag or linker. Residues count along the entry.
UniProt O15047: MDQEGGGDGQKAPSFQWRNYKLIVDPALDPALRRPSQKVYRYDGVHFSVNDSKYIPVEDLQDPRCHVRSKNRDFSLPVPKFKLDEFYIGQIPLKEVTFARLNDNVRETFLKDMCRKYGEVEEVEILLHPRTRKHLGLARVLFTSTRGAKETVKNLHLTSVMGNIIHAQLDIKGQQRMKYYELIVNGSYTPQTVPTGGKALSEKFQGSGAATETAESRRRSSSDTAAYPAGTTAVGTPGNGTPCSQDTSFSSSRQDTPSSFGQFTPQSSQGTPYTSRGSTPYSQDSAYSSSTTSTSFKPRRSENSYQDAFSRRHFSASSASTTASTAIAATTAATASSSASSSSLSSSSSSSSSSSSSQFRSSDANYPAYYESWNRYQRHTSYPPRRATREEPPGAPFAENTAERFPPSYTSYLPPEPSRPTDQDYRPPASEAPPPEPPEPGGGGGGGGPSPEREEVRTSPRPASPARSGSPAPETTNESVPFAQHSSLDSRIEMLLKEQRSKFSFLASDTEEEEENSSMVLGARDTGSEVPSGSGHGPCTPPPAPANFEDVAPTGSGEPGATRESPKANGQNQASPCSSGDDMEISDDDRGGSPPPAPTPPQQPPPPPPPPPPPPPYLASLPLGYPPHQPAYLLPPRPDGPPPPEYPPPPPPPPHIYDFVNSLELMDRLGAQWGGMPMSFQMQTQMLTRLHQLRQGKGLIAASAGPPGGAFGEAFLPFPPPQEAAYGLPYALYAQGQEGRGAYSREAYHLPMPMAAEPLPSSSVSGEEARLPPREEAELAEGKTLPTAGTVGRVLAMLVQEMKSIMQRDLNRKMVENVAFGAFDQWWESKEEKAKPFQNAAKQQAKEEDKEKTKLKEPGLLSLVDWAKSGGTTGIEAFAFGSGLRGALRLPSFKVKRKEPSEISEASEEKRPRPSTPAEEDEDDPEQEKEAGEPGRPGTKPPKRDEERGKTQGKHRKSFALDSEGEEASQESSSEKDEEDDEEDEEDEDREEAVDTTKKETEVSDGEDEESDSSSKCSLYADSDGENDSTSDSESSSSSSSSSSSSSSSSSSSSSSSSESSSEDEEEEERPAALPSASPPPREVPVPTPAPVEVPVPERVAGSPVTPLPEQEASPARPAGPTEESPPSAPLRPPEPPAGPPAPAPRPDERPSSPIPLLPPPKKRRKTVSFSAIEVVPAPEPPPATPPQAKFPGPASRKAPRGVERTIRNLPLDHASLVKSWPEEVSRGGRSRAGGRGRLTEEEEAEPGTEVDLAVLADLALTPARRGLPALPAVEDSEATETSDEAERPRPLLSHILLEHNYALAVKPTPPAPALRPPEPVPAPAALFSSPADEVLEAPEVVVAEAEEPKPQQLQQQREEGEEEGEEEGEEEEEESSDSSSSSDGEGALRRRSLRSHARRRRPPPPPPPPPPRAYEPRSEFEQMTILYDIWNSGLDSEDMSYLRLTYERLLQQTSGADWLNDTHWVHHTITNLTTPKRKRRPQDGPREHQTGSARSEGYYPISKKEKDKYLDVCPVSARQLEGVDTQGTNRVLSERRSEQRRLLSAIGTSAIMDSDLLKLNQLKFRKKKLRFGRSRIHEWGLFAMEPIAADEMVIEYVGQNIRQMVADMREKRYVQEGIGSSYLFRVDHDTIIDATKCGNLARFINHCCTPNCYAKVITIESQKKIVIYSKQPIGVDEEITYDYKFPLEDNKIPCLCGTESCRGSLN
SFB-tagged RRM (RNA recognition motif) fragment of KMT2F, amino acids 74-172: residues 74-172 of O15047
UniProt Q9NYV6: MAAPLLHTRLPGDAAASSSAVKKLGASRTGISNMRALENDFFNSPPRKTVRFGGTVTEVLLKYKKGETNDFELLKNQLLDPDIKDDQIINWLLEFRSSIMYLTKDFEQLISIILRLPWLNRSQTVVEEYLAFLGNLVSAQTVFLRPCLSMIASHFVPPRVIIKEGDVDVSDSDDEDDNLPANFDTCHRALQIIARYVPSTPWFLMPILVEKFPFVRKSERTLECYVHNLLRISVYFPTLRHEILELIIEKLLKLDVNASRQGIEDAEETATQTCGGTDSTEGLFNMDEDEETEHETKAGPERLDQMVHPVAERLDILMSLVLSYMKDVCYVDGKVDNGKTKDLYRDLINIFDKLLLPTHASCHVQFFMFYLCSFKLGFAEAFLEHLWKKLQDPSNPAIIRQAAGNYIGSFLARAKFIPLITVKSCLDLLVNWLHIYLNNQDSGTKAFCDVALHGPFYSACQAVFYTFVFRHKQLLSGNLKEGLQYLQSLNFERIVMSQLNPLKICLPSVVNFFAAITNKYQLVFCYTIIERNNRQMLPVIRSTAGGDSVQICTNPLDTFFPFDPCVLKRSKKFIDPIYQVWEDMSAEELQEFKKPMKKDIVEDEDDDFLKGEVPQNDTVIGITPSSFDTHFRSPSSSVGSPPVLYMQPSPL

How the values were obtained:
[1] = biological target: KMT2F (endogenous) (human (endogenous in HeLa)) (UniProt O15047); assay: co-IP
[2] = biological target: SFB-tagged RRM (RNA recognition motif) fragment of KMT2F, amino acids 74-172 (UniProt O15047); assay: pull-down
[3] = biological target: SFB-tagged KMT2F N1646A (catalytic dead mutant) (UniProt O15047); assay: pull-down
[4] = biological target: SFB-tagged full length KMT2F (UniProt O15047); assay: pull-down

Measured: binding

RRN3 (endogenous) (from UniProt Q9NYV6 1-651)
binds: [1] | [2] | [3] | [4]
